# In all, about 400,000 compounds went through this assay and about 13,000 (3.2%) were called active. Inconclusive means that the source gave no clear call. Such entries were picked first, then a sample of the others. Calls come from the whole dose curve; as a rule, active = well fitted cell-killing curve with a large enough effect; inconclusive = small, poorly fitted or top-dose-only effect, or effect the other way; inactive = flat fitted curve, though single readings scatter. A potency beside an inconclusive call is a rough fit, not a confirmed value.
# Test: qHTS assay for MDR1-selective chemotherapeutics: Primary screen using the drug-selected MDR subline cells KB-V1; note: nearly all actives have a fitted effect of over 60% in size
# Conditions: KB-V1 MDR cells viability, CellTiter-Glo, 72 h; activity change, negative = cytotoxicity: at 46.1 µM (top of the series)
# Summary of the method: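 Cytotoxicity via CellTiter-Glo luminescence after 72 h compound exposure at 37 degrees C. Cells: drug-selected KB-V1 line, DMEM phenol-red free plus 10% FBS. Compounds tested at multiple concentrations; normalized data fitted to concentration-effect curves.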
# % is set by controls: 0 for no effect and ±100 for the full control effect; potency is the fitted concentration of half-maximal effect.
SMILES,Potency,"activity change, negative = cytotoxicity"
Cc1nn(CC(=O)Nc2ccc(Cl)c(S(=O)(=O)N(C)C)c2)c(C)c1[N+](=O)[O-],active: 20.6 µM,
CC(C)OC(=O)Cc1nc2sc(-c3ccccc3)cc2c(=O)[nH]1,"inconclusive: 14.6 µM [cytotoxic, single point]",
Cc1cc(C)c(OCC(=O)OCC(=O)NNC(=O)c2ccccc2F)c(C)c1,,inactive: 4.33%
Cc1noc(C)c1COc1ccccc1C(=O)NNC(=O)c1ccccc1F,"inconclusive: 18.4 µM [cytotoxic, partial curve, poor fit]",
Cc1ccc(S(=O)(=O)N2CCN(C(=O)C3CCN(c4ncnc5sc(C)c(C)c45)CC3)CC2)c(C)c1,,inactive: -6.56%
CCN(CC(=O)NC1CCCC1)S(=O)(=O)c1ccc(C)cc1,"inconclusive: 20.6 µM [cytotoxic, partial curve]",
CC(C)(C)OC(=O)C[C@H]1C/C=C\C[C@H](CC(=O)NCCO)C(=O)N[C@@H](c2ccccc2)COC1=O,,inactive: -2.84%
Cc1ccsc1C(=O)N1CCCC(N(C)Cc2ccccc2)C1 (configuration not stated),"inconclusive: 9.2 µM [cytotoxic, partial curve]",
COc1cc(C2C3=C(CC(C)(C)CC3=O)OC(N)=C2[N+](=O)[O-])ccc1O (configuration not stated),,inactive: 0%
COc1ccccc1C(=O)NCCSCc1ccccc1Cl,"inconclusive: 0.259 µM [cytotoxic, full curve]",
C/C(Cn1nnc2ccccc21)=N\NC(=O)c1cccc(Br)c1,,inactive: 0%
CC1CC(C)CN(CCCNC(=O)c2ccc(N3CCCC3=O)cc2)C1 (configuration not stated),"inconclusive: 25.9 µM [rising, single point]",
CCN1C(=NCc2ccco2)N[C@@H](c2cccc(F)c2)C(C(=O)OC)=C1C,,inactive: -6.63%
Cc1nc(SCC(=O)Nc2nnc(C(C)C)s2)n[nH]1,"inconclusive: 2.59 µM [rising, partial curve, poor fit]",
CCOc1ccc(NC(=O)c2ccc(NC(=O)CCS(=O)(=O)c3cccs3)cc2)cc1,,inactive: 20%
COc1cc(/C(C#N)=C/c2ccccc2)c([N+](=O)[O-])cc1OC,"inconclusive: 18.4 µM [cytotoxic, single point]",
Cc1cccc(N2CCN(C(=O)c3c(-c4ccccc4)noc3C)CC2)c1C,active: 3.66 µM,
O=[N+]([O-])c1ccc(N/N=C2\CC3CC=CC23)cc1 (configuration not stated),,inactive: 0%
O=C(NC(=S)NCCc1ccccc1)c1cccc(Cl)c1,,inconclusive: -21.8%
C=CCn1c(SCC(=O)NCc2ccco2)nnc1-c1ccc2ccccc2n1,active: 7.31 µM,
CCn1ccnc1CN1CCCC(C(=O)c2ccc3cc(OC)ccc3c2)C1 (configuration not stated),"inconclusive: 7.31 µM [cytotoxic, partial curve]",
O=c1oc2ccc(Br)cc2cc1-c1nc2c(s1)CCc1ccccc1-2,,inactive: 8.17%
CC(OC(=O)c1ccco1)C(=O)Nc1ccc(Cl)cn1 (configuration not stated),"inconclusive: 32.6 µM [rising, partial curve, poor fit]",
O=C(NCCO)c1cccc(Nc2nc(-c3ccccc3)c3cc(Cl)ccc3n2)c1,active: 16.4 µM,

SMILES,Potency,"activity change, negative = cytotoxicity"
Cc1csc(SCC(=O)Nc2cccc(C)c2C)n1,active: 16.4 µM,
Cc1ccc(Cc2nc3ccccc3nc2SCC(=O)N2CCc3ccccc32)cc1,,inactive: 2.95%
CCCCCCCCCCCCN1[C@@H](CC(=O)OC)c2cc(F)ccc2S1(=O)=O,inactive,
COc1ccc(OCC(=O)Nc2cc(-c3nn(C)c(=O)c4ccccc34)ccc2N2CCOCC2)cc1,"inconclusive: 1.64 µM [cytotoxic, full curve, poor fit]",
Cc1ccc(NC(=O)CN2CCCC2)cc1Br,"inconclusive: 5.8 µM [cytotoxic, partial curve, poor fit]",
Cc1[nH]c2ccccc2c1C(=O)CSC(=S)N(C)C,"inconclusive: 29.1 µM [cytotoxic, single point]",
COc1ccc(CNC(=O)C2CCC(=O)N2C(C)C)c(OC)c1 (configuration not stated),"inconclusive: 3.66 µM [rising, full curve, poor fit]",
COc1ccc(NC(=O)c2cc(Br)ccc2Cl)c(OC)c1,active: 16.4 µM,
COc1cccc(NC(=O)CN(C)C(=O)c2ccccc2OCC(=O)Nc2cccc(C(F)(F)F)c2)c1,"inconclusive: 29.1 µM [cytotoxic, single point]",
Cc1cccc(C2=NNC(=O)C(c3ccc(Cl)cc3)C2)c1 (configuration not stated),"inconclusive: 23.1 µM [cytotoxic, single point]",
COc1ccc(S(=O)(=O)N(C)CC(=O)Nc2ccc3c(c2)OCO3)cc1,,inactive: 1.18%
CC1CCCN(CC(=O)NNC(=O)COc2ccc(Br)cc2)C1 (configuration not stated),"inconclusive: 20.6 µM [rising, single point]",
O=c1nc2sc3ccccc3n2c(=O)n1-c1cccc(Cl)c1,"inconclusive: 20.6 µM [cytotoxic, single point]",
CCOC(=O)C1=C(CC)Nc2ccccc2N=C1NC(=O)c1ccc(C)c(S(=O)(=O)N2CCOCC2)c1,,inconclusive: -3.37%
CC1CCN(S(=O)(=O)c2ccc3c(c2)N(CC(=O)NCc2ccccc2)C(=O)CO3)CC1,"inconclusive: 4.61 µM [cytotoxic, full curve]",
N#Cc1nc(COc2ccccc2F)oc1N1CCCCCC1,"inconclusive: 16.4 µM [cytotoxic, partial curve]",
CC1CCN(C(=S)Nc2ccc(SC(F)F)cc2)CC1,,inactive: -5.13%
COc1cc(N2C(=O)C=CC2=O)c(OC)cc1Cl,"inconclusive: 25.9 µM [cytotoxic, single point]",
O=C(C1Cc2ccccc2CN1S(=O)(=O)c1ccc(F)cc1)N1CCOCC1 (configuration not stated),,inactive: -3.91%
CC/S(CC1CC1(Cl)Cl)=N\S(=O)(=O)c1ccc(C)cc1 (configuration not stated),"inconclusive: 35.5 µM [cytotoxic, single point]",
O=C(Cn1ncc2c(=O)oc3ccccc3c21)Nc1cc(F)ccc1F,,inactive: 0%
Cc1cc(C)nc(N/N=C/c2cccc3ccccc23)n1,active: 18.4 µM,
CCCn1c(-c2cc(OC)c(OC)c(OC)c2)nc2c1c(=O)[nH]c(=O)n2Cc1ccccc1,"inconclusive: 5.8 µM [cytotoxic, partial curve]",
COc1ccccc1N1CCN(C(=O)c2c(-c3ccccc3Cl)noc2C)CC1,"inconclusive: 23.1 µM [cytotoxic, single point]",

SMILES,Potency,"activity change, negative = cytotoxicity"
COc1ccc(/C=N/Nc2nnc(-c3ccccc3)c(=O)[nH]2)cc1,active: 13 µM,
O=C(NCc1ccccc1Cl)c1ccc(Cn2cc(C(F)(F)F)ccc2=O)cc1,active: 6.51 µM,
COC(=O)c1ccc(Cl)cc1NC(=O)N1CC=C(c2c[nH]c3ccccc23)CC1,,inactive: 2.65%
O=C1N[C@H](Cc2ccccc2)COC(=O)[C@H](Cc2ccc(F)cc2)CC/C=C/C[C@@H]1CC(=O)N(CCO)Cc1ccccc1,"inconclusive: 29.1 µM [cytotoxic, single point]",
OC(COc1ccccc1)CN1CCCCC1 (configuration not stated),"inconclusive: 20.6 µM [cytotoxic, partial curve, poor fit]",
CS(=O)(=O)Nc1ccc(C(=O)CSc2nnc(C3CC3)n2C2CC2)cc1,,inactive: 11.9%
COc1cc(C2SCC(=O)N2Cc2ccccc2)cc(OC)c1OC (configuration not stated),,inactive: -9.54%
O=C(CSc1nc2ccccc2n1Cc1ccccc1Cl)N/N=C/c1ccccc1C(=O)O,"inconclusive: 0.92 µM [rising, full curve]",
Cc1ccc(NS(=O)(=O)c2ccc3c(c2)CCC(=O)N3)cc1C,"inconclusive: 18.4 µM [cytotoxic, partial curve, poor fit]",
COc1cc(NC(=O)c2ccc(C(C)(C)C)cc2)c(OC)cc1NC(=O)CN1CCCCC1,"inconclusive: 10.3 µM [cytotoxic, partial curve, poor fit]",
CC(=O)O/N=C/c1c(NCc2ccccc2)nc2c(C)cccn2c1=O,"inconclusive: 18.4 µM [cytotoxic, single point]",
Cc1ccc(C)c(NC(=O)CSc2nc(=O)n(CCN3CCOCC3)c3c2CCCC3)c1,"inconclusive: 16.4 µM [cytotoxic, single point]",
O=C1C(c2ccncc2)N(CCC2=CCCCC2)C(=O)CN1C1CCCCC1 (configuration not stated),active: 11.2 µM,
CCCC(=O)N(CCc1ccc(OC)cc1)Cc1nc2ccccc2c(=O)[nH]1,active: 14.6 µM,
NC(c1ccccc1)c1csc(Nc2ccc(C(=O)NCCCO)cn2)n1 (configuration not stated),,inactive: 17.7%
COc1ccc(-c2cc(C(F)(F)F)c(C#N)c(SCC(=O)Nc3ccccc3C#N)n2)cc1,"inconclusive: 18.4 µM [cytotoxic, single point]",
O=S(=O)(NCCNCC=Cc1ccc(Br)cc1)c1cccc2cnccc12,"inconclusive: 18.4 µM [cytotoxic, single point]",
O=C(N/N=C\c1ccc(COc2ccc([N+](=O)[O-])cc2)o1)c1ccc(Cl)cc1,,inactive: 2.25%
O=C(OCCOc1ccccc1)c1cc(S(=O)(=O)N2CCOCC2)c(Cl)cc1Cl,,inactive: 0%
CCOc1ccccc1-n1ccnc(NCc2ccc(F)cc2)c1=O,"inconclusive: 6.51 µM [rising, partial curve, poor fit]",
COc1cccc2cc(-c3cc(=O)oc4ccc(OCC(C)=O)cc34)oc12,"inconclusive: 20.6 µM [cytotoxic, partial curve, poor fit]",
COc1cc(C(=O)NCC(c2ccco2)N2CCCC2)ccc1OCc1ccc(Cl)cc1Cl (configuration not stated),"inconclusive: 29.1 µM [cytotoxic, single point]",
COc1ccc(/C=N/Nc2nnc(-c3ncc[nH]3)c3ccccc23)cc1,"inconclusive: 4.61 µM [cytotoxic, partial curve]",
COc1ccc(/C=C/C(=O)N(C)C2(C)CCS(=O)(=O)C2)cc1 (configuration not stated),,inactive: -6.03%

# Random excerpt: three entries already listed, in no set order.
SMILES,Potency,"activity change, negative = cytotoxicity"
COc1ccc(/C=N/Nc2nnc(-c3ccccc3)c(=O)[nH]2)cc1,active: 13 µM,
COc1cc(C(=O)NCC(c2ccco2)N2CCCC2)ccc1OCc1ccc(Cl)cc1Cl (configuration not stated),"inconclusive: 29.1 µM [cytotoxic, single point]",
OC(COc1ccccc1)CN1CCCCC1 (configuration not stated),"inconclusive: 20.6 µM [cytotoxic, partial curve, poor fit]",

# — PubChem BioAssay AID1347076 (National Center for Advancing Translational Sciences (NCATS), 2019)
